From US20190256853
The exact form of at least one protein or probe is not confirmed. For part of these data: Negatives hold for the conditions tested.

Experiments:
[1] = test system: IgG Fc fragment (human polyclonal) (Homo sapiens); test: SELEX; conditions: purified native protein, protein details: Jackson ImmunoResearch 009-000-008, single-stranded DNA
[2] = test system: polyclonal IgG (human plasma) (Homo sapiens); test: SPR; conditions: purified native protein, protein details: purity >95%, single-stranded DNA
[3] = test system: polyclonal IgG (human plasma) (Homo sapiens); test: pull-down; conditions: 5' triethylene glycol spacer (SPR); 5' C6 amino spacer and 3' idT (affinity support); affinity chromatography, MES pH 5.5, 5 mM MgCl2; eluted at pH 7.4; yield 82% purified IgG, 66% plasma; purified native protein; protein details: purity >95%; label: 5' biotin (SPR); single-stranded DNA

Sequence | selection result ([1]; 5' triethylene glycol spacer, label: 5' biotin) | binding result ([2]; 5' triethylene glycol spacer, 200 nM IgG, pH 5.50, resists 2 M NaCl, released at pH 7.40, label: 5' biotin) | selection result ([1]; 5' triethylene glycol spacer (SPR), 5' C6 amino spacer and 3' idT (affinity support), label: 5' biotin (SPR)) | binding result ([2]; 5' triethylene glycol spacer (SPR), 5' C6 amino spacer and 3' idT (affinity support), 200 nM IgG, pH 5.50, resists 2 M NaCl, released at pH 7.40, label: 5' biotin (SPR)) | binding result ([2]; 5' triethylene glycol spacer (SPR), 5' C6 amino spacer and 3' idT (affinity support), no significant binding at pH higher than 6.0, highest binding at pH 5.30, label: 5' biotin (SPR)) | binding result [3]
GGGTCAATGCCAGGTCTCCACGGTATAGTCTCGCCCAGTGCCCTTTGTTGGACTTCCTATCGGCTCGCAAGCAGTC [A6-8] | selected | binds |  |  |  | 
GGGTCAATGCCAGGTCTCCCCAGCCTCATCTCACGGCATAGTCTCGCCACACTGGAAATCGGCTCGCAAGCAGTC [A6-2] |  |  | selected | binds | no binding | binds
